Measured values reported in PubChem BioAssay AID2685 (National Center for Advancing Translational Sciences (NCATS), 2010).
Among all 320,000 compounds or so, about 2,100 (0.66%) were called active. This list was built around the results that the source calls inconclusive (neither active nor inactive); the mix of calls is not that of the screen. Calls follow the shape of the dose curve; as a rule, active = well fitted inhibition curve with a large enough effect in the signal ratio, with a control signal flat (not every such curve was filed as active); inconclusive = small, poorly fitted or top-dose-only effect, or effect the other way, or a change in a side signal; inactive = flat fitted curve, though single readings scatter; the % refers to the signal ratio. A potency beside an inconclusive call is a rough fit, not a confirmed value.

Assay: qHTS Assay for Lipid Storage Modulators in Drosophila S3 Cells
Details: BODIPY lipid droplet fluorescence, 18-24 h, cells fed with added oleic acid; lipid storage change, negative = inhibition: at 46.1 µM (top of the series) unless noted
Method in brief: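 Drosophila S3 cells loaded with oleic acid (400 uM, as added) and compounds at several concentrations; lipid droplets imaged by 488-nm laser-scanning cytometry, 500–530 nm intensity and object ratio to cell channel. Percent activity normalized to 20 uM Triacsin C.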
% is scaled to controls: 0 for no effect and ±100 for the full control effect; potency is read from the fitted curve at half-maximal effect.

SMILES	Potency	lipid storage change, negative = inhibition	outcome
CCCCc1nc(SCCN2CCOCC2)c2c(=O)n(C)c(=O)n(C)c2n1	inconclusive: 6.51 µM [rising, single point]		
COCCCn1c(Cc2csc(Nc3cccc(Cl)c3)n2)nnc1SCC(=O)OC1CCCCC1		inconclusive: -17.9%	
Cc1cccc(CSc2nc3ccccc3c(=O)n2C)c1		inconclusive: -5.46%	
CC(CNC(=O)Cn1ccc2cc(S(=O)(=O)N3CCCC3)ccc21)c1ccccc1 (centres undefined)			inactive [at 46.1 µM]
Cc1cc(NC(=O)CN2CCN(C)CC2)no1		inconclusive: -48%	
NS(=O)(=O)c1ccc(CCNC(=O)COC(=O)CCN2C(=O)C3CC=CCC3C2=O)cc1 (centres undefined)	inconclusive: 7.31 µM [activator, partial curve]		
Cc1nc2ccc(NC(=O)c3cc(S(=O)(=O)N(C)c4ccccc4)ccc3Cl)cc2s1		inconclusive: -148%	
Cc1cc(C(=O)OCC(=O)Nc2ccc(S(=O)(=O)N3CCOCC3)cc2)c(C)o1		inconclusive: 12%	
O=C(NCc1ccccc1)c1onc(CSc2ccc(F)cc2)c1C(=O)NCCCN1CCOCC1	inconclusive: 1.84 µM [rising, partial curve]		
COc1ccc(S(=O)(=O)NC2CCCCC2)cc1C(=O)N1CCCCC1		inconclusive: 9.72%	
CCCN1C(=O)/C(=C/c2ccc(C)o2)NC1=S		inconclusive: 4.25%	
CCc1ccc(-c2csc3ncn(Cc4ccc(C(=O)O)cc4)c(=O)c23)cc1	inconclusive: 29.1 µM [falling, single point]		
CC(C)c1ncc(C(O)c2cccc3ccccc23)n1C (centres undefined)		inconclusive: 22.4%	
CCN1C(=NCCCCO)N[C@@H](c2cccc(F)c2)C(C(=O)OC)=C1C		inconclusive: 37.1%	
COc1cccc(/C(O)=C/c2nc3ccc(C(=O)NCCc4cccc(C)c4)cc3[nH]c2=O)c1	inconclusive: 29.1 µM [falling, single point]		
CN(C)C(=O)c1cc(C(=O)c2c(F)cccc2F)c[nH]1		inactive: -0.223%	
Cc1ccc(NC(=O)c2ccccc2)cc1C		inconclusive: 4.59%	
CCOc1ccc(OCC(=O)Nc2ccc(OC)cc2[N+](=O)[O-])cc1		inconclusive: -7.83%	
O=C(COC(=O)c1ccc(O)cc1)NC1CCCCCC1		inconclusive: 13.8%	
N#Cc1cc(N2CCOCC2)nc2ccccc12		inconclusive: 6.36%	
CC(C)C(NC(=O)c1ccccc1)c1nnc(SCC(=O)Nc2nccs2)n1C (centres undefined)		inconclusive: 7.65%	
O=C1CC(c2ccc3ccccc3c2)NN1 (centres undefined)		inconclusive: 17.4%	
Brc1ccc(-c2nn3c(-c4ccco4)nnc3s2)o1		inconclusive: 0.628%	
COc1ccc(NC(=O)CC2C(=O)N(CCc3ccccc3)C(=S)N2Cc2cccnc2)cc1 (centres undefined)		inconclusive: -8.33%	
CCc1cc(=O)oc2cc(C)c3c(C)coc3c12		inconclusive: -20.1%	
COc1ccc(OC)c(S(=O)(=O)NC(N)=NCCc2ccccc2OC)c1		inconclusive: -7.24%	
Cc1ccc(-c2nc(=O)[nH]c3ccc(Br)cc23)cc1		inconclusive: -26.4%	

An excerpt from above in order of molar mass, largest number first.
SMILES	Potency	lipid storage change, negative = inhibition	outcome
NS(=O)(=O)c1ccc(CCNC(=O)COC(=O)CCN2C(=O)C3CC=CCC3C2=O)cc1 (centres undefined)	inconclusive: 7.31 µM [activator, partial curve]		
CCCCc1nc(SCCN2CCOCC2)c2c(=O)n(C)c(=O)n(C)c2n1	inconclusive: 6.51 µM [rising, single point]		
O=C(COC(=O)c1ccc(O)cc1)NC1CCCCCC1		inconclusive: 13.8%	
CC(C)c1ncc(C(O)c2cccc3ccccc23)n1C (centres undefined)		inconclusive: 22.4%	

Limited to lipid storage change, negative = inhibition, for some of the entries so far:
SMILES | lipid storage change, negative = inhibition
COCCCn1c(Cc2csc(Nc3cccc(Cl)c3)n2)nnc1SCC(=O)OC1CCCCC1 | inconclusive: -17.9%
Cc1cccc(CSc2nc3ccccc3c(=O)n2C)c1 | inconclusive: -5.46%

Carrying on:

SMILES	Potency	lipid storage change, negative = inhibition	outcome
Cc1cccc(-c2nnc(SCC3CNC(=O)O3)n2-c2ccc(Cl)cc2)c1 (centres undefined)		inconclusive: -33.7%	
COc1ccc2c(C)cc(SCC(=O)Nc3c(C)n(C)n(-c4ccccc4)c3=O)nc2c1		inconclusive: 64.7%	
Cc1cc2c(c(=O)n1Cc1ccccc1)C1O[C@](c3ccsc3)(Cc3ccccc31)O2	inconclusive: 5.96 µM [falling, single point]		
COc1ccc(C(=O)OCC(=O)NC2CCCCCC2)c(OC)c1		inconclusive: 25.6%	
CCn1nc(NC(=O)c2ccncc2)c2cc3ccccc3nc21	inconclusive: 2.06 µM [activator, partial curve]		
Cn1c(C(=O)N2CCCc3ccccc32)cc2c(=O)n3ccccc3nc21		inconclusive: -33.9%	
Cc1ccc2nc(SCC(=O)N3CCOCC3)[nH]c2c1		inactive: -4.97%	
O=C(CSc1nc2ccccc2s1)NCc1ccc2c(c1)OCO2		inconclusive: 20%	
O=C(NC(CO)(CO)CO)[C@@H]1CCCN1S(=O)(=O)c1cccc2cccnc12	inconclusive: 4.11 µM [activator, full curve]		
Nc1c(Cl)ncnc1N/N=C/c1ccncc1		inconclusive: 12.6%	
CN(C)CCCNc1ncnc2c1cnn2-c1ccccc1	inconclusive: 6.51 µM [activator, single point]		
CC(C)C(=O)Nc1cc(=O)[nH]c2ncnn12	active: 5.8 µM		
COc1cc(NC(=O)COc2ccccc2)c(OC)cc1NC(C)=O	inconclusive: 16.4 µM [falling, single point]		
CCCN(C(=O)C(NC(=O)c1ccccc1)C(C)C)c1c(N)n(Cc2ccccc2)c(=O)[nH]c1=O (centres undefined)		inconclusive: 8.74%	
C=CCNC(=O)/C(C#N)=C/c1c(C)nn(-c2ccc(Cl)cc2)c1Cl	inconclusive: 18.4 µM [falling, single point]		
Cc1c(/C=C/C(=O)c2cccs2)cnn1C		inconclusive: -9.93%	
Cc1cc2c(cc1S(=O)(=O)CCC(=O)NC1CCC(C)CC1)OCC(=O)N2 (centres undefined)		inconclusive: 30%	
COC(=O)C1=C(C)OC(N)=C(C#N)C1c1cc(OC)c(OCC(N)=O)cc1Cl (centres undefined)		inconclusive: -9.93%	
COc1ccc(N2CCN(C(=S)Nc3ccccc3)CC2)cc1	inconclusive: 0.92 µM [activator, full curve, poor fit]		
COc1ccc(OCC(=O)N2CCN(C(=O)c3ccco3)CC2)cc1		inconclusive: 30.6%	
O=C(O)c1cccc(Nc2nc(Nc3ccccc3)nc(N3CCCC3)n2)c1		inconclusive: 2.2%	
CCOc1ccc(Cl)cc1/C=N/NC(=O)c1ccccc1		inconclusive: -12.6%	
Cc1ccc2c(c1)c1c(n2CC(O)Cn2c(C)nc3ccccc32)CCCC1 (centres undefined)	inconclusive: 29.1 µM [cytotoxic, single point]		
CC(=O)Nc1ccc(CNC(=O)C[N+]2(C)CCOCC2)cc1		inconclusive: 30.4%	
COc1cc(/C=N/Nc2ccccc2[N+](=O)[O-])ccc1OC(=O)c1ccccc1F		inconclusive: 10.5%	
CC(C)c1ccc(NC(=O)CSc2nc(=O)n(CCCN3CCOCC3)c3c2CCCC3)cc1		inconclusive: 16.3%	
COc1cc(CNC2CCCCCCC2)c(Br)cc1OCCO		inactive: -10.5%	

SMILES	Potency	lipid storage change, negative = inhibition	outcome
CN(c1ccccc1)S(=O)(=O)c1ccc(C(=O)N2CCCC2)cc1		inactive: 15.8%	
Cc1occc1-c1nnc(SCC(=O)c2c[nH]c3ccccc23)n1C		inconclusive: 34.2%	
O=S(=O)(c1ccc(-c2csc(=Nc3ccccc3)n2CCCN2CCOCC2)cc1)N1CCOCC1		inconclusive: -7.41%	
CN1CCN(CC(=O)Nc2cc(N3CCOCC3)ccc2[N+](=O)[O-])CC1		inconclusive: -31.7%	
COc1ccc(C(=O)Nc2ccc(NC(=O)c3cccc(OC)c3)cn2)cc1	inconclusive: 20.6 µM [falling, single point]		
N#C/C(=C(/O)COC(=O)c1ccccc1O)c1nc2ccccc2s1	inconclusive: 0.184 µM [falling, full curve]		
CCOc1ccc(N=C(NN)c2ccc3ccccc3n2)cc1		inconclusive: 20.9%	
S=C(NCCN1CCOCC1)Nc1ccc(Cl)cc1Cl		inconclusive: 6.46%	
Cc1cc(NC(=O)CSc2ccccn2)cc(NC(=O)CSc2ccccn2)c1		inconclusive: -51.1%	
CCOc1ccc(S(=O)(=O)N(CC(=O)NC2CCCCC2C)Cc2ccco2)cc1 (centres undefined)	inconclusive: 29.1 µM [falling, partial curve, poor fit]		
C=C(C)c1cccc(C(C)(C)NC(=O)Nc2ccc(C)cn2)c1		inconclusive: -26.5%	
CC(C)Cc1nnc(NC(=O)CN2C(=O)C3CCCCC3C2=O)s1 (centres undefined)	inconclusive: 0.164 µM [falling, full curve, poor fit]		
COc1cccc(C(=O)CSc2nnc(-c3ccco3)n2CC2CCCO2)c1 (centres undefined)	inconclusive: 3.26 µM [activator, single point]		
COc1cccc(-c2cc(C(=O)NCc3ccco3)no2)c1		inconclusive: 59.7%	
COc1ccc(-n2nc(C(=O)O)c3ccccc3c2=O)c(OC)c1	inconclusive: 6.51 µM [falling, single point]		
CCC(=O)Nc1ccc2c(c1)nc(CCN1CCN(C)CC1)n2C	inconclusive: 0.651 µM [falling, partial curve]		
O=C(NCc1ccccc1)c1ccc(CS(=O)(=O)Cc2ccc(F)cc2)o1	inconclusive: 29.1 µM [falling, single point]		
O=C(c1ccco1)N1CCN(c2c(-c3ccccc3)c3cc(Cl)ccc3[nH]c2=O)CC1	inconclusive: 0.326 µM [rising, full curve, poor fit]		
COc1ccc(-n2c(C)nc3cc(C(=O)NCc4ccco4)ccc32)cc1		inconclusive: 17.2%	
Cc1c(Cl)cccc1NC(=O)CCCN1C(=O)CCC1=O	inconclusive: 1.46 µM [activator, full curve]		
COc1cccc(NC(=O)c2sc(Cl)nc2C)c1	inconclusive: 2.31 µM [activator, partial curve]		
NC(=O)c1ccsc1NC(=O)COC(=O)c1ccc([N+](=O)[O-])o1		inconclusive: -82.3%	
CCOC(=O)C(CO)(NC(C)=O)C(=O)OCC		inconclusive: -6.97%	
Cc1nnsc1C(=O)N1CCCC(Nc2ccc(F)c(F)c2)C1 (centres undefined)		inconclusive: 121%	
COc1ccc(N2CCN(C(=O)C(NC(=O)c3c(F)cccc3F)C(C)C)CC2)cc1 (centres undefined)		inconclusive: 47.3%	
